Data published in PubChem BioAssay AID504444 (National Center for Advancing Translational Sciences (NCATS), 2011).
Among all 360,000 compounds or so, about 7,500 (2.1%) were called active. The inconclusive results got no clear call from the source; some entries with a clear call stand among them for comparison. Calls come from the whole dose curve; as a rule, active = well fitted inhibition curve with a large enough effect; inconclusive = small, poorly fitted or top-dose-only effect, or effect the other way; inactive = flat fitted curve, though single readings scatter. Where the call is inconclusive, the potency comes from a doubtful curve fit.
% is set by controls: 0 for no effect and ±100 for the full control effect; potency is the fitted concentration of half-maximal effect.

Assay: Nrf2 qHTS screen for inhibitors; note: nearly all actives have a fitted effect of over 60% in size
Conditions: A549 ARE-Fluc reporter, luciferase luminescence, 18-24 h; activity change, negative = inhibition: at 46 µM (top of the series)
How it was run: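 Nrf2 activity is the BugLite luminescence, read 15 min after reagent at room temperature, following CellTiter-Fluor cytotoxicity readout (30 min, 37C). Compound titrations were applied for 18-24 h to 5000 A549 ARE_Fluc cells/well in 5% FBS OPTI-MEM.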
With COc1cccc(CNC(=O)Cn2nc(C)n3c(cc4cc(C)ccc43)c2=O)c1OC the Potency was “inactive”. For CCSc1nc(-c2cccc(Cl)c2)nc2c1Cc1c(CO)cnc(C)c1O2, the Potency was inconclusive: 29.1 µM [activator, single point]. For CCN(Cc1ccccc1)C(c1ccc(C)cc1)c1nnnn1C(C)(C)CC (configuration not stated), the Potency was inconclusive: 20.6 µM [falling, partial curve, poor fit]. For COc1cccc(C(=O)Nc2nc(-c3nnn(-c4ccccc4C(F)(F)F)c3C)ns2)c1, the Potency was “inactive”. In the case of CCC(C)(C)C1CCC(=NNC(=O)c2ccoc2C)CC1 (configuration not stated), the Potency is reported as inconclusive: 6.51 µM [activator, partial curve]. For C=CCn1c(-c2ccc(C)cc2)nc2ccccc21, the Potency was inconclusive: 3.66 µM [activator, full curve]. In the case of COc1ccc(-c2nc3ccccc3n2Cc2ccccc2)cc1, the Potency is reported as “inactive”. In the case of O=C1CCCC(=O)C1C1c2ccccc2CCN1C(=O)CCl (configuration not stated), the Potency is reported as inconclusive: 6.51 µM [falling, single point]. With Cc1cc(NC(=O)c2ccc3c(c2)OCCO3)no1 the Potency was inconclusive: 18.4 µM [falling, single point]. For CC1=C(C(=O)Nc2ccccc2)C(c2ccccn2)n2nc(SCc3ccccc3)nc2N1 (configuration not stated), the activity change, negative = inhibition was inactive: -13.2% [at 9.27 µM]. For COc1ccc2cc(-c3cccnc3)ncc2c1, the Potency was inconclusive: 14.6 µM [activator, partial curve, poor fit]. With COc1cc(CN2CCCCCC2)cc(OC)c1OC the Potency was “inactive”. In the case of Cc1ccccc1NC(=O)/C(C#N)=C/c1ccc[nH]1, the Potency is reported as inconclusive: 1.84 µM [activator, full curve]. For Cc1ccc2c(c1)C(c1ccccc1)N(C(=O)COc1ccc(Cl)cc1Cl)CC(=O)N2 (configuration not stated), the activity change, negative = inhibition was inactive: 7.58% [at 9.27 µM]. With CCc1nn(CC(=O)N2CCN(c3cccc(C)c3)C(C)C2)c(=O)c2cc3sccc3n12 (configuration not stated) the Potency was inconclusive: 9.2 µM [falling, single point]. With CCOC(=O)N1CCC(NC(=O)CS(=O)(=O)Cc2nc(-c3ccccc3Cl)oc2C)CC1 the Potency was inconclusive: 16.4 µM [falling, single point]. In the case of CCOCCCNC(=O)C(c1ccc(C)cc1)N(Cc1ccc2c(c1)OCO2)C(=O)c1ccccc1O (configuration not stated), the activity change, negative = inhibition is reported as inactive: 2.45% [at 9.27 µM]. With Cc1ccc(NC(=O)n2ncc3c(C)cccc32)c(C)c1 the Potency was inconclusive: 13 µM [activator, partial curve, poor fit]. In the case of O=C(NCCc1ccc(F)cc1)Nc1ccc2c(c1)OCO2, the Potency is reported as inconclusive: 23.1 µM [activator, partial curve, poor fit]. For COc1cc(SC)ccc1C(=O)Nc1ccccn1, the Potency was inconclusive: 2.31 µM [activator, full curve]. In the case of COc1ccccc1CCNc1ncnc2nc[nH]c12, the Potency is reported as inconclusive: 18.4 µM [falling, single point]. In the case of COc1ccc(OC)c(N(C(=O)c2snc(C(N)=O)c2N)C(C(=O)NCc2ccccc2)c2ccc(O)cc2)c1 (configuration not stated), the Potency is reported as “inactive”. With COC(=O)[C@H]1[C@H]2C[C@@H]3c4[nH]c5cc(OC)ccc5c4CCN3C[C@H]2C[C@@H](OC(=O)c2cc(OC)c(OC)c(OC)c2)[C@@H]1OC the Potency was inconclusive: 25.9 µM [falling, partial curve, poor fit]. In the case of Cc1ccc2[nH]c3c(c2c1)CCCC3C(N)=O (configuration not stated), the Potency is reported as “inactive”. In the case of O=C(/C=C/c1ccccc1F)N1CCN(c2ccccn2)CC1, the Potency is reported as inconclusive: 20.6 µM [activator, partial curve, poor fit]. In the case of COc1cccc(C2=CC(c3ccccc3F)n3ncc(C(=O)Nc4ccc(F)cc4)c3N2)c1 (configuration not stated), the Potency is reported as inconclusive: 29.1 µM [falling, single point]. In the case of N#C/C(=C(/O)c1ccc(-c2cccc([N+](=O)[O-])c2)o1)c1nc2ccccc2s1, the Potency is reported as inconclusive: 25.9 µM [falling, single point]. For COc1ccc(S(=O)(=O)N2CCOC2CNC(=O)C(=O)NCc2ccncc2)cc1 (configuration not stated), the Potency was “inactive”. For CCn1c(CCNC(=O)c2ccc(OC)cc2)nnc1SCc1ccc(Cl)c(Cl)c1, the Potency was inconclusive: 18.4 µM [falling, single point]. With CCC(=O)c1ccc(OCc2ccccc2)c(OC)c1 the Potency was inconclusive: 6.51 µM [activator, partial curve]. With c1ccc2c(CNc3ccc(CNc4ncn[nH]4)cc3)cccc2c1 the Potency was inconclusive: 20.6 µM [falling, single point]. For Cc1nn(-c2ccc(F)cc2)c(N)c1C1(O)C(=O)Nc2ccccc21 (configuration not stated), the Potency was “inactive”. In the case of COc1cc(C2Nc3ccc4ncccc4c3C3=C2C(=O)CCC3)ccc1O (configuration not stated), the Potency is reported as “inactive”. With Cc1ccc(NC(=O)N2CCCC2c2cccs2)cc1 (configuration not stated) the Potency was inconclusive: 32.6 µM [activator, partial curve, poor fit]. For O=C(CCCc1ccccc1)NCCc1ccccc1, the Potency was inconclusive: 14.6 µM [activator, partial curve, poor fit]. In the case of CC(=O)c1ccc(NC(=O)CN2CCCCCC2)cc1, the Potency is reported as inconclusive: 29.1 µM [activator, single point]. With CCOC(=O)c1cc(-c2ccccc2)sc1NC(=O)C(C)OC(=O)c1cccc(S(=O)(=O)N(C)C)c1 (configuration not stated) the Potency was inconclusive: 2.31 µM [falling, partial curve, poor fit]. For CC(=O)NC1=NC(=O)/C(=C/c2cc(C)n(-c3cccc(C(=O)O)c3)c2C)S1, the Potency was inconclusive: 6.51 µM [activator, single point]. With COc1cc2c(cc1NC(=O)c1ccc(C(C)(C)C)cc1)CCCC2 the Potency was inconclusive: 7.31 µM [activator, partial curve]. With COC(=O)c1cc(-c2ccc(Cl)cc2)c2c(=O)[nH]c(=O)n(C)c2n1 the Potency was inconclusive: 4.61 µM [falling, full curve]. In the case of Cc1ccc(NC(=O)N2CCc3ccccc32)cc1, the Potency is reported as inconclusive: 0.231 µM [activator, full curve]. In the case of CCOC(=O)c1cc2sc(C)cc2n1CC(=O)NCCc1ccccc1, the Potency is reported as inconclusive: 32.6 µM [falling, single point].
